Measured values published in PMC6535728 (Therapeutic Advances in Medical Oncology, 2019).

What was measured:
[1] = tested on: cKIT phosphorylation in GIST-882; conditions: GIST-882, 1 h treatment, immunoblot
[2] = tested on: cKIT phosphorylation in GIST-T1; conditions: GIST-T1, 1 h treatment, immunoblot
[3] = tested on: phospho-cKIT and phospho-Histone H3 in patient D primary cells; conditions: 1 μM, 6 h

## CNC(=O)c1ccccc1Sc1ccc2c(/C=C/c3ccccn3)n[nH]c2c1 [Axitinib, axitinib]
[1]
  Inhibition of phospho-cKIT Y719, Y703, and Y823: potently inhibit
[2]
  Inhibition of phospho-cKIT Y719, Y703, and Y823: potently inhibit
[3]
  Inhibition of phospho-Histone H3: potently inhibited
  Inhibition of phospho-cKIT: potently inhibited
